Our source for the binding values is publication PMC9898264.

The chains behind the UniProt entries cited, without tags or fusion partners. Residues count along the entry.
UniProt Q68FX9, residues 37-310: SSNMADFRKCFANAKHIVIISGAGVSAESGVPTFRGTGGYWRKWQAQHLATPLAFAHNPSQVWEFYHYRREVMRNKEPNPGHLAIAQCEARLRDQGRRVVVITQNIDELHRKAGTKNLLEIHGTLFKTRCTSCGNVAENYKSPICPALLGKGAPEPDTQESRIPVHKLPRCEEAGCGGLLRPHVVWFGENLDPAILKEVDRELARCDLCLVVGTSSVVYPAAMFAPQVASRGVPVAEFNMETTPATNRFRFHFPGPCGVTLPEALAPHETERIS
UniProt Q9JM53, residues 102-612: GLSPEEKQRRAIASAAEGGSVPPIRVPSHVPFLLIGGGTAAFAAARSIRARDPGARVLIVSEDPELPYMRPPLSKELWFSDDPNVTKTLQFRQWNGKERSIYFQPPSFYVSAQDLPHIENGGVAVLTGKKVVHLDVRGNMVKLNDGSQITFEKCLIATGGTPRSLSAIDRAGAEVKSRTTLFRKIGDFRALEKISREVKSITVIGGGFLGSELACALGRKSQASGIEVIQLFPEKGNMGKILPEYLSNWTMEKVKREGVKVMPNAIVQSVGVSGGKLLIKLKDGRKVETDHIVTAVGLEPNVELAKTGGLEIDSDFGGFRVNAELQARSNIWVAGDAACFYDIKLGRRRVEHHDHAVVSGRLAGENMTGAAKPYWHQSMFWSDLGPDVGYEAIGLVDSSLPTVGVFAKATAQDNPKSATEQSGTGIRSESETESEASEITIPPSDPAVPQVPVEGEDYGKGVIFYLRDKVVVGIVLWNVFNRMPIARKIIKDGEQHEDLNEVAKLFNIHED

Assay [1] has as its target Sirtuin 5 (SIRT5) (rat (endogenous in rat NP cells)) (UniProt Q68FX9). Nature of the assay: co-IP; endogenous proteins in rat NP cells; IP with 5 ug anti-AIFM1 or 4 ug anti-SIRT5, Protein A/G magnetic beads, Western blot; AIFM1-CHCHD4 co-IP done in si-NC and si-Sirt5 cells. (In general: A western blot detects proteins with antibodies after separation by electrophoresis.)

The target of assay [2] is apoptosis-inducing factor mitochondrion-associated 1 (AIFM1) (rat (endogenous in rat NP cells)) (UniProt Q9JM53). Described as above.
The target is the same in assay [3]. Put plainly: co-IP; in vitro succinylation assay: AIFM1 purified from NP cells, incubated with different concentrations of succinyl-CoA in succinylation buffer (20 mmol/L HEPES pH 8.0, 1 mmol/L DTT, 1 mmol/L PMSF, 0.1 mg/mL BSA) 15 min at 30 °C; Western blot of succinylated AIFM1 and of CHCHD4 bound to AIFM1.

No constants are given. Whether binding was seen depends on the method and setting. Binding seen in cells or lysates may run through a third protein. Some binding calls cover weakened binding; strength is not graded here.

“apoptosis-inducing factor mitochondrion-associated 1 (AIFM1) (from UniProt Q9JM53 102-612)”: in assay [1], the binding result is “binds”.
As for “Sirtuin 5 (SIRT5) (from UniProt Q68FX9 37-310) (enzyme)”, in assay [2], the binding result is on record as “binds”.

B1: CHCHD4 (protein, UniProt Q5BJN5 1-139)
chain: MSYCRQEGKDRIIFVTKEDHETPSSAELVADDPNDPYEEHGLILPNGDINWNCPCLGGMASGPCGEQFKSAFSCFHYSTEDIKGSDCIDQFRAMQECMQKYPDLYPQDEEEEEEAKPVEPVEETADTKASAAKEQGASS
On to B1, for which the binding result in assay [2] and in assay [3] was “binds” in each case.
